Measurements reported in article PMC10204968.

Amino acid sequences for entries named in this document (tags omitted). A change or cut given only in a name is not applied to a line headed by its entry.
UniProt B0UTF5: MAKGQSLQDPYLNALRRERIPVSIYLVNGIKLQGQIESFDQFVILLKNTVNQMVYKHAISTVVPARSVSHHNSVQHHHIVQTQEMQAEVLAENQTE

Target: Hfq (His6-Hfq) (Histophilus somni strain 2336) (UniProt B0UTF5)
Assay: EMSA
Details: 0.65-5 uM Hfq, yeast tRNA competitor; 10 mM Tris-HCl pH 7.4, 6% glycerol, 50 ug/ml BSA, 0.75 ug baker's yeast tRNA, 200 ng sRNA, 15 ul, room temperature 30 min; 6% native PAGE, 0.5x TBE, GelGreen stain; recombinant protein; residues 1-96; protein details: His6 and V5 epitope (pET101/D-TOPO); probe letters rebuilt from the primers and the genome

Sequence: GGGGUGUAUAAUAGAAAUCAAAUAAUCGUGUUUAACGGUUUGGUCUGGAAACUUCAACGUUAAAACACUUGUAACGGAUAAGCCCUAUAGCCAAAUAGGGCUUUUUCUUUAUCUGUACCUUUUAGCUUAGGGAUAGUUACCGACAGGCGAAACCGCCGUUUACGGCGGUUGAGUUUUUAGAGCUGAAGCAAGGCAGAAAUGCCGUAGCCUGAAGCCUAAAAAUAUAGCCCGACCGCACGCUUUUGCGUGGGGUAAGCCCCUAAACCAUAUAAACUGGUUGCUAUUGUACCGCCUGACUUAUACAAAGAUCAAGUAAGAUCUAAAAUCCACGCAAAAAAAAUUUUUU [HS79 sRNA]
- binding result: binds
